PubChem BioAssay AID1224828 – NIAID | 2016
The deposit covers about 17,000 reagents; shown is a random part of them. Over the whole deposit, 762 (4.5%) were called active. 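Active calls include both raised and lowered p65 entry, mostly lowered; wells with fewer than 50 cells lack a z-score.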 The raw values are shown without normalisation.

- Screen: 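Regulators linking TLR4 signalling to p65 nuclear translocation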 (primary screen)
- Cell system: mouse RAW264.7 G9 macrophage reporter cells (GFP-p65, Tnf promoter-mCherry)
- Knock-down reagent: siRNA pool against mouse genes, 100 nM
- Time to read-out: 2 days siRNA transfection, then 40 min LPS before fixation
- Treatment: LPS (Salmonella minnesota R595) at 10 ng/ml
- Measurement: 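Imaged p65 nuclear translocation ratio, normalised to the plate median, converted to robust z-scores and averaged across two replicates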
- Scale: p65 translocation robust z-score: higher = more nuclear NF-kappaB p65 after LPS than the plate median; nuclear/cytoplasmic p65 ratio: higher = more nuclear NF-kappaB p65
- Rule for the call: 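Active if robust z is above 3.3 (negative regulators) or below -1.56, the Tlr4 control median (positive regulators); activity score 50 or more; control wells not called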
- Meaning of the calls: active = hit (p65 shift raised or lowered); inactive = no clear change

The first 2 entries, ahead of the listing:
{"target": "Mmp25", "PubChem SID": "SID315479475", "p65 translocation robust z-score": -0.37, "nuclear/cytoplasmic p65 ratio, rep 1": 1.4, "nuclear/cytoplasmic p65 ratio, rep 2": 1.29, "low cell count flag": "enough cells to score", "call": "inactive"}
{"target": "Epha4", "PubChem SID": "SID315466523", "p65 translocation robust z-score": 0.21, "nuclear/cytoplasmic p65 ratio, rep 1": 1.72, "nuclear/cytoplasmic p65 ratio, rep 2": 1.51, "low cell count flag": "enough cells to score", "call": "inactive"}

The listing, from the first entry:
{"target": "Mmp25", "PubChem SID": "SID315479475", "p65 translocation robust z-score": -0.37, "nuclear/cytoplasmic p65 ratio, rep 1": 1.4, "nuclear/cytoplasmic p65 ratio, rep 2": 1.29, "low cell count flag": "enough cells to score", "call": "inactive"}
{"target": "Epha4", "PubChem SID": "SID315466523", "p65 translocation robust z-score": 0.21, "nuclear/cytoplasmic p65 ratio, rep 1": 1.72, "nuclear/cytoplasmic p65 ratio, rep 2": 1.51, "low cell count flag": "enough cells to score", "call": "inactive"}
{"target": "Unc5cl", "PubChem SID": "SID315475348", "nuclear/cytoplasmic p65 ratio, rep 1": 1.41, "nuclear/cytoplasmic p65 ratio, rep 2": 1.23, "low cell count flag": "fewer than 50 cells per well; well left out of scoring", "call": "inactive"}
{"target": "Themis", "PubChem SID": "SID315477653", "p65 translocation robust z-score": -1.17, "nuclear/cytoplasmic p65 ratio, rep 1": 1.3, "nuclear/cytoplasmic p65 ratio, rep 2": 1.04, "low cell count flag": "enough cells to score", "call": "inactive"}
{"target": "Ndnf", "PubChem SID": "SID315473434", "p65 translocation robust z-score": 1.4, "nuclear/cytoplasmic p65 ratio, rep 1": 1.5, "nuclear/cytoplasmic p65 ratio, rep 2": 1.72, "low cell count flag": "enough cells to score", "call": "inactive"}
{"target": "Zswim9", "PubChem SID": "SID315481436", "p65 translocation robust z-score": -0.23, "nuclear/cytoplasmic p65 ratio, rep 1": 1.33, "nuclear/cytoplasmic p65 ratio, rep 2": 1.29, "low cell count flag": "enough cells to score", "call": "inactive"}
{"target": "Tacstd2", "PubChem SID": "SID315471673", "p65 translocation robust z-score": -0.76, "nuclear/cytoplasmic p65 ratio, rep 1": 1.41, "nuclear/cytoplasmic p65 ratio, rep 2": 1.42, "low cell count flag": "enough cells to score", "call": "inactive"}
{"target": "Triqk", "PubChem SID": "SID315477556", "p65 translocation robust z-score": -1.48, "nuclear/cytoplasmic p65 ratio, rep 1": 1.23, "nuclear/cytoplasmic p65 ratio, rep 2": 1.32, "low cell count flag": "enough cells to score", "call": "inactive"}
{"target": "Csrp2", "PubChem SID": "SID315466178", "p65 translocation robust z-score": -0.58, "nuclear/cytoplasmic p65 ratio, rep 1": 1.49, "nuclear/cytoplasmic p65 ratio, rep 2": 1.69, "low cell count flag": "enough cells to score", "call": "inactive"}
{"target": "Or2w1", "PubChem SID": "SID315468312", "p65 translocation robust z-score": 2.06, "nuclear/cytoplasmic p65 ratio, rep 1": 2.01, "nuclear/cytoplasmic p65 ratio, rep 2": 1.67, "low cell count flag": "enough cells to score", "call": "inactive"}
{"target": "Naa15", "PubChem SID": "SID315475052", "p65 translocation robust z-score": -0.22, "nuclear/cytoplasmic p65 ratio, rep 1": 1.41, "nuclear/cytoplasmic p65 ratio, rep 2": 1.32, "low cell count flag": "enough cells to score", "call": "inactive"}
{"target": "A930024E05Rik", "PubChem SID": "SID315476799", "p65 translocation robust z-score": -0.64, "nuclear/cytoplasmic p65 ratio, rep 1": 1.3, "nuclear/cytoplasmic p65 ratio, rep 2": 1.43, "low cell count flag": "enough cells to score", "call": "inactive"}
{"target": "Bbln", "PubChem SID": "SID315474777", "p65 translocation robust z-score": -0.66, "nuclear/cytoplasmic p65 ratio, rep 1": 1.31, "nuclear/cytoplasmic p65 ratio, rep 2": 1.49, "low cell count flag": "enough cells to score", "call": "inactive"}
{"target": "Rmnd1", "PubChem SID": "SID315472202", "p65 translocation robust z-score": 0.68, "nuclear/cytoplasmic p65 ratio, rep 1": 1.5, "nuclear/cytoplasmic p65 ratio, rep 2": 1.67, "low cell count flag": "enough cells to score", "call": "inactive"}
